The whole screen tested about 580,000 compounds, of which about 6,100 (1.1%) were called active. Inconclusive results, whose numbers are uncertain, are shown with a selection of clear calls. The call rests on the fitted dose curve; in most records, active means well fitted inhibition curve with a large enough effect; inconclusive means small, poorly fitted or top-dose-only effect, or another doubt; inactive means no such curve, though single readings can be large or run the other way. Potencies of inconclusive entries are doubtful fits and often do not repeat.
Molecular target: Polyunsaturated fatty acid lipoxygenase ALOX12 (Homo sapiens) (UniProt P18054)
Assay: Primary qHTS assay for inhibitors of human arachidonate 12S-lipoxygenase (ALOX12): Round 2
Conditions: purified 12hLO, xylenol orange hydroperoxide absorbance; activity change, negative = inhibition: at 108 µM (top of the series) unless noted
Outline: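 Purified human 12hLO (150 nM final) in 25 mM Hepes, 0.01% Triton X-100, pH 7.0 was preincubated 15 min at room temperature with compound. Then 40 uM arachidonic acid was added, 30 min. Hydroperoxide was read by Fe-XO absorbance ratio 573/405 nm.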
On the % scale 0 is the no-effect control and ±100 the full control effect; potency means the concentration at half of the fitted maximal effect.

By UniProt entry, the sequences of proteins in these tests, tags left out. Where a name states a change or a piece, a line headed by the entry shows the natural chain unless it says otherwise.
UniProt P18054: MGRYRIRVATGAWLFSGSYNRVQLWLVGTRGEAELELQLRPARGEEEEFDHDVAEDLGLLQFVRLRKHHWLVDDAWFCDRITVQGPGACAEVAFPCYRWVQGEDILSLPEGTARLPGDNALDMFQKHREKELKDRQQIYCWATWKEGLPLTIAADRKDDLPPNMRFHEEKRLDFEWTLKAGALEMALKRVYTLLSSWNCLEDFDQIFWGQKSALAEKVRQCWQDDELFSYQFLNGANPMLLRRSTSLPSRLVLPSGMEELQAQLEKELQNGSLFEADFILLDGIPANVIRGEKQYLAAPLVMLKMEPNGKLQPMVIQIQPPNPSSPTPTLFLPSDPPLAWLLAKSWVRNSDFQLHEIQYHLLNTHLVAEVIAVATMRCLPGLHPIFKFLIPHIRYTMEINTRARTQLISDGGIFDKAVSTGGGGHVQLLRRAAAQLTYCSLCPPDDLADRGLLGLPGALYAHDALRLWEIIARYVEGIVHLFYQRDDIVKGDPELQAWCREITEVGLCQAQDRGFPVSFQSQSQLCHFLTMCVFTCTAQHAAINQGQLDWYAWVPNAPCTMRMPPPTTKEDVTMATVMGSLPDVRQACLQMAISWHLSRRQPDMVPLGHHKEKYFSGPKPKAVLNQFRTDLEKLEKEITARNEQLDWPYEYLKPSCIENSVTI

Row | SMILES | Potency | activity change, negative = inhibition
1 | O=C(CCCCl)N1CCc2[nH]c3ccccc3c2C1 | inconclusive: 50.1 µM [inhibitor, partial curve, poor fit] | 
2 | CCOC1=C2[C@H](c3ccccc3Cl)N(S(=O)(=O)c3ccc(C)cc3)C[C@H]2C(C#N)(C#N)C(C#N)(C#N)C1 | inconclusive: 100 µM [inhibitor, partial curve, poor fit] | 
3 | COc1ccc(-c2c(C#N)c(C)nc3c2C(=O)c2ccccc2-3)cc1 | inconclusive: 39.8 µM [inhibitor, partial curve] | 
4 | Cc1ccc(CN2CCC(c3cc(-c4cccs4)n[nH]3)CC2)cc1 | inconclusive: 39.8 µM [inhibitor, partial curve, poor fit] | 
5 | O=C(CCNS(=O)(=O)c1cccs1)N1CCN(c2ccc(F)cc2)CC1 | inconclusive: 112 µM [inhibitor, partial curve, poor fit] | 
6 | Cc1cccc(-c2noc(CCCC(=O)NC3CCCC3)n2)c1 |  | inactive: -5.9%
7 | COc1cccc(NC(=O)c2ncoc2-c2cccs2)c1 |  | inactive: -2.46%
8 | CCOC(=O)c1ccc(Nc2c(CC)c(C)nc3ncnn23)cc1 |  | inactive: 19.2%
9 | CCOc1cc(/C=C2\SC(=NC)N(C)C2=O)cc(Cl)c1OC(C)=O |  | inactive: -3.3%
10 | CC(=O)c1ccc(NC(=O)C2=CC(c3ccc(C)cc3)=NS(=O)(=O)N2C)cc1 |  | inactive: -9.06%
11 | CCOC(=O)N1CCN(C(C(=O)O)c2c[nH]c3ccc(OC)cc23)CC1 (stereo unspecified) | inconclusive: 79.4 µM [inhibitor, single point] | 
12 | COc1ccc(-c2ccc(-c3noc(-c4ccccc4C)n3)c(OC)n2)cc1 |  | inactive: 295%
13 | CCCN1CCC2(CC1)C(C#N)=C(N)Oc1c2sc2nc(C)cc(C)c12 | inconclusive: 44.7 µM [inhibitor, single point] | 
14 | Cc1ccc(NC(=O)Cn2cccc2)cc1C |  | inactive: 7.33%
15 | CCCCN1C(=O)[C@@H]2C[C@@H](O)CN2C2(CN(CC3CC3)C2)C1=O |  | inactive: 9.06% [at 176 µM]
16 | Cc1ccc(NC(=O)CSCC(=O)N(C)Cc2ccc(Cl)c(Cl)c2)cc1 |  | inactive: 0.598%
17 | CCOc1ccc2nc(NC(=O)c3cnc(C)cn3)sc2c1 |  | inactive: 489%
18 | CC(=O)c1cc(NC(=O)c2cccc(C(F)(F)F)c2)c(=O)oc1C |  | inactive: -19%
19 | CC(NC(=O)C12CC3CC(CC(Cl)(C3)C1)C2)c1ccc(Cl)cc1 (stereo unspecified) | inconclusive: 63.1 µM [inhibitor, partial curve, poor fit] | 
20 | CCCc1noc(-c2ccn3c(CNC(=O)c4ccc5[nH]ccc5c4)nnc3c2)n1 | inconclusive: 70.8 µM [inhibitor, partial curve] | 
21 | c1ccc(Cn2ccnc2)c(CNC2CCCCCC2)c1 | inconclusive: 31.6 µM [inhibitor, partial curve, poor fit] | 

In another format: 2 of the compounds above.
Row	SMILES	Potency	activity change, negative = inhibition
18	CC(=O)c1cc(NC(=O)c2cccc(C(F)(F)F)c2)c(=O)oc1C		inactive: -19%
19	CC(NC(=O)C12CC3CC(CC(Cl)(C3)C1)C2)c1ccc(Cl)cc1 (stereo unspecified)	inconclusive: 63.1 µM [inhibitor, partial curve, poor fit]	

— PubChem BioAssay AID1671190 (National Center for Advancing Translational Sciences (NCATS), 2021)
